Assay results taken from article PMC7919836.
No constants are given. Whether binding was seen depends on the method and setting. Binding seen in cells or lysates may run through a third protein. Some binding calls cover weakened binding; strength is not graded here. Sequences can lack the tags named with a protein.

Assays:
Experiment in all cases: pull-down; SFB-tagged DUB (or OTUD6A full length or truncated) and MYC-tagged Aurora-A (full length or truncated) co-transfected into HEK293T; lysis in NETN buffer; DUB pulled down with S-protein beads at 4 °C overnight; Aurora-A blotted with MYC antibody
[1] = molecular target: T1, SFB-tagged OTUD6A^ΔCt (C-terminal-deleted, aa 1-275) (human) (UniProt Q7L8S5)
T1 sequence: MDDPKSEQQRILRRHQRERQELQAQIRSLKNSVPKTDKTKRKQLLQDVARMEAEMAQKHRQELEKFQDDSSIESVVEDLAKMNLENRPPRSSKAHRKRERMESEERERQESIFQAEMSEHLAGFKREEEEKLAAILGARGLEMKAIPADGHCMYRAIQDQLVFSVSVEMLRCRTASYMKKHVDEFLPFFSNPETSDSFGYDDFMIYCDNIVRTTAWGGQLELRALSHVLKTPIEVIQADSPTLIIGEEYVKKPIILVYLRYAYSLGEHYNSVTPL

SFB-tagged CYLD (human) = molecular target: T2, SFB-tagged CYLD (human) (UniProt Q9NQC7)
T2 sequence: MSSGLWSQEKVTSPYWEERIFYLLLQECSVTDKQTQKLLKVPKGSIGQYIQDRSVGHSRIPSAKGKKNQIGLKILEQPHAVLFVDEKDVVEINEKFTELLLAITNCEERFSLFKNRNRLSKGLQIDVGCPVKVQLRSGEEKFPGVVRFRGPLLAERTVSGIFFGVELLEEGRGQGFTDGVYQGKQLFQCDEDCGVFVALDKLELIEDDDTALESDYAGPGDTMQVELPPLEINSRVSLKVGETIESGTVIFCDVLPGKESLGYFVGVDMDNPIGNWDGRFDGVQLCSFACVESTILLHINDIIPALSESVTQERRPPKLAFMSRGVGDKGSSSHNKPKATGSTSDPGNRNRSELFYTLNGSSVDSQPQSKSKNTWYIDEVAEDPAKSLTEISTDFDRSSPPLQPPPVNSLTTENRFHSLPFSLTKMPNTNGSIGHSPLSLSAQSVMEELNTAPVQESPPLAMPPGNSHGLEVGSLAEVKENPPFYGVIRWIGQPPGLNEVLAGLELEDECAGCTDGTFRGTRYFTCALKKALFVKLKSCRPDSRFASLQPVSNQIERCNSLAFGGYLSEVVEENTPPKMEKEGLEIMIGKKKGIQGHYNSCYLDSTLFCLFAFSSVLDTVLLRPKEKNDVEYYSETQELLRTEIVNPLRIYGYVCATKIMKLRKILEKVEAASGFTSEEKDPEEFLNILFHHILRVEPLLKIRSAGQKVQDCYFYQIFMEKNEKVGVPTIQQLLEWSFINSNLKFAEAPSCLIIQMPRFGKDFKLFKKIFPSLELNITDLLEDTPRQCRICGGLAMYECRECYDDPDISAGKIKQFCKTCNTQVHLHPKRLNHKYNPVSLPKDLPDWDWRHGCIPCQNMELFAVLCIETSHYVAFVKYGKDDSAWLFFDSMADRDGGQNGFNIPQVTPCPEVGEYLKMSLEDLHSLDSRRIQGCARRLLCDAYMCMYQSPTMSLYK

SFB-tagged USP2 (human) = molecular target: T3, SFB-tagged USP2 (human) (UniProt O75604)
T3 sequence: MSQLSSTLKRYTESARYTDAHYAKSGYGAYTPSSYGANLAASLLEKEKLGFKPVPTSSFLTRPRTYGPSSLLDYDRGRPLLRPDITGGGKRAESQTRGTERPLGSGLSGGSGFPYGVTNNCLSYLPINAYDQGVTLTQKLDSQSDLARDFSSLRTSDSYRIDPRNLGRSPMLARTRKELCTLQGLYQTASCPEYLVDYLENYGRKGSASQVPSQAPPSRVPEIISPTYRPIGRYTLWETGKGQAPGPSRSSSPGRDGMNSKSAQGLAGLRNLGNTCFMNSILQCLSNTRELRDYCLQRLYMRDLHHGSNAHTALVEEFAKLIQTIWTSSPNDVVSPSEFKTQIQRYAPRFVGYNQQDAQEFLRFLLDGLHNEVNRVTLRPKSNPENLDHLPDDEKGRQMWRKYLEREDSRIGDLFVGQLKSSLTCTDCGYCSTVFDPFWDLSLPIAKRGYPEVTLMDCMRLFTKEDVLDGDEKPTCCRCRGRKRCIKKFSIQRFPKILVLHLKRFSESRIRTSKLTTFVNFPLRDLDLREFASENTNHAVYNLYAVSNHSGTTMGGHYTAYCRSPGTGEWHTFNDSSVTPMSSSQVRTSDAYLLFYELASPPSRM

B1: MYC-tagged Aurora kinase A, full-length wild type (aa 1-403) (protein, UniProt O14965 1-403)
chain: MDRSKENCISGPVKATAPVGGPKRVLVTQQFPCQNPLPVNSGQAQRVLCPSNSSQRIPLQAQKLVSSHKPVQNQKQKQLQATSVPHPVSRPLNNTQKSKQPLPSAPENNPEEELASKQKNEESKKRQWALEDFEIGRPLGKGKFGNVYLAREKQSKFILALKVLFKAQLEKAGVEHQLRREVEIQSHLRHPNILRLYGYFHDATRVYLILEYAPLGTVYRELQKLSKFDEQRTATYITELANALSYCHSKRVIHRDIKPENLLLGSAGELKIADFGWSVHAPSSRRTTLCGTLDYLPPEMIEGRMHDEKVDLWSLGVLCYEFLVGKPPFEANTYQETYKRISRVEFTFPDFVTEGARDLISRLLKHNPSQRPMLREVLEHPWITANSSKPSNCQNKESASKQS
B1 was tested, and the binding [1] was “binds”, the binding (SFB-tagged CYLD (human)) was “binds” and the binding (SFB-tagged USP2 (human)) was “no binding”.
